# In the supplement of paper PMC10849652:
# By UniProt entry, the sequences of proteins in these tests, tags left out. Where a name states a change or a piece, a line headed by the entry shows the natural chain unless it says otherwise.
# UniProt Q16864, whole entry, looked up: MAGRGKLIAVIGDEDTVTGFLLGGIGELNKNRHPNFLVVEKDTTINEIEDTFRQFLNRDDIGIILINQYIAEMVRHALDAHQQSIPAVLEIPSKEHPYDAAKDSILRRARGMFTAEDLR
# UniProt O95671: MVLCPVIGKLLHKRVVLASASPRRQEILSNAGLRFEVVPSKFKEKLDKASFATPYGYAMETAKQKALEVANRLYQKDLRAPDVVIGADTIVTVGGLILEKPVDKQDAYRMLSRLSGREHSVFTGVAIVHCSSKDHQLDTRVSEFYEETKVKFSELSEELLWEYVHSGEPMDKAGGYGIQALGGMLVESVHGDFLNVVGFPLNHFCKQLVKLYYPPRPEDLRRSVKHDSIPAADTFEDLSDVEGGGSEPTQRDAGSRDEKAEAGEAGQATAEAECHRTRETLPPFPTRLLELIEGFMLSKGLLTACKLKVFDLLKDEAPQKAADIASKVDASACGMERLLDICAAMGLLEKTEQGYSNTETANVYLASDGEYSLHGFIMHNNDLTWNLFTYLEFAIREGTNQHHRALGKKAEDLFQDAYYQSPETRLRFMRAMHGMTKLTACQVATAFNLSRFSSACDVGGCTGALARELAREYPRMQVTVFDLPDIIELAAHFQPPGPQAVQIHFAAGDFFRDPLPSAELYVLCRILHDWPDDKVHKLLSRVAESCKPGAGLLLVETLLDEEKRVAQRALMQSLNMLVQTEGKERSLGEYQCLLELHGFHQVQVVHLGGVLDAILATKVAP
# UniProt Q13535: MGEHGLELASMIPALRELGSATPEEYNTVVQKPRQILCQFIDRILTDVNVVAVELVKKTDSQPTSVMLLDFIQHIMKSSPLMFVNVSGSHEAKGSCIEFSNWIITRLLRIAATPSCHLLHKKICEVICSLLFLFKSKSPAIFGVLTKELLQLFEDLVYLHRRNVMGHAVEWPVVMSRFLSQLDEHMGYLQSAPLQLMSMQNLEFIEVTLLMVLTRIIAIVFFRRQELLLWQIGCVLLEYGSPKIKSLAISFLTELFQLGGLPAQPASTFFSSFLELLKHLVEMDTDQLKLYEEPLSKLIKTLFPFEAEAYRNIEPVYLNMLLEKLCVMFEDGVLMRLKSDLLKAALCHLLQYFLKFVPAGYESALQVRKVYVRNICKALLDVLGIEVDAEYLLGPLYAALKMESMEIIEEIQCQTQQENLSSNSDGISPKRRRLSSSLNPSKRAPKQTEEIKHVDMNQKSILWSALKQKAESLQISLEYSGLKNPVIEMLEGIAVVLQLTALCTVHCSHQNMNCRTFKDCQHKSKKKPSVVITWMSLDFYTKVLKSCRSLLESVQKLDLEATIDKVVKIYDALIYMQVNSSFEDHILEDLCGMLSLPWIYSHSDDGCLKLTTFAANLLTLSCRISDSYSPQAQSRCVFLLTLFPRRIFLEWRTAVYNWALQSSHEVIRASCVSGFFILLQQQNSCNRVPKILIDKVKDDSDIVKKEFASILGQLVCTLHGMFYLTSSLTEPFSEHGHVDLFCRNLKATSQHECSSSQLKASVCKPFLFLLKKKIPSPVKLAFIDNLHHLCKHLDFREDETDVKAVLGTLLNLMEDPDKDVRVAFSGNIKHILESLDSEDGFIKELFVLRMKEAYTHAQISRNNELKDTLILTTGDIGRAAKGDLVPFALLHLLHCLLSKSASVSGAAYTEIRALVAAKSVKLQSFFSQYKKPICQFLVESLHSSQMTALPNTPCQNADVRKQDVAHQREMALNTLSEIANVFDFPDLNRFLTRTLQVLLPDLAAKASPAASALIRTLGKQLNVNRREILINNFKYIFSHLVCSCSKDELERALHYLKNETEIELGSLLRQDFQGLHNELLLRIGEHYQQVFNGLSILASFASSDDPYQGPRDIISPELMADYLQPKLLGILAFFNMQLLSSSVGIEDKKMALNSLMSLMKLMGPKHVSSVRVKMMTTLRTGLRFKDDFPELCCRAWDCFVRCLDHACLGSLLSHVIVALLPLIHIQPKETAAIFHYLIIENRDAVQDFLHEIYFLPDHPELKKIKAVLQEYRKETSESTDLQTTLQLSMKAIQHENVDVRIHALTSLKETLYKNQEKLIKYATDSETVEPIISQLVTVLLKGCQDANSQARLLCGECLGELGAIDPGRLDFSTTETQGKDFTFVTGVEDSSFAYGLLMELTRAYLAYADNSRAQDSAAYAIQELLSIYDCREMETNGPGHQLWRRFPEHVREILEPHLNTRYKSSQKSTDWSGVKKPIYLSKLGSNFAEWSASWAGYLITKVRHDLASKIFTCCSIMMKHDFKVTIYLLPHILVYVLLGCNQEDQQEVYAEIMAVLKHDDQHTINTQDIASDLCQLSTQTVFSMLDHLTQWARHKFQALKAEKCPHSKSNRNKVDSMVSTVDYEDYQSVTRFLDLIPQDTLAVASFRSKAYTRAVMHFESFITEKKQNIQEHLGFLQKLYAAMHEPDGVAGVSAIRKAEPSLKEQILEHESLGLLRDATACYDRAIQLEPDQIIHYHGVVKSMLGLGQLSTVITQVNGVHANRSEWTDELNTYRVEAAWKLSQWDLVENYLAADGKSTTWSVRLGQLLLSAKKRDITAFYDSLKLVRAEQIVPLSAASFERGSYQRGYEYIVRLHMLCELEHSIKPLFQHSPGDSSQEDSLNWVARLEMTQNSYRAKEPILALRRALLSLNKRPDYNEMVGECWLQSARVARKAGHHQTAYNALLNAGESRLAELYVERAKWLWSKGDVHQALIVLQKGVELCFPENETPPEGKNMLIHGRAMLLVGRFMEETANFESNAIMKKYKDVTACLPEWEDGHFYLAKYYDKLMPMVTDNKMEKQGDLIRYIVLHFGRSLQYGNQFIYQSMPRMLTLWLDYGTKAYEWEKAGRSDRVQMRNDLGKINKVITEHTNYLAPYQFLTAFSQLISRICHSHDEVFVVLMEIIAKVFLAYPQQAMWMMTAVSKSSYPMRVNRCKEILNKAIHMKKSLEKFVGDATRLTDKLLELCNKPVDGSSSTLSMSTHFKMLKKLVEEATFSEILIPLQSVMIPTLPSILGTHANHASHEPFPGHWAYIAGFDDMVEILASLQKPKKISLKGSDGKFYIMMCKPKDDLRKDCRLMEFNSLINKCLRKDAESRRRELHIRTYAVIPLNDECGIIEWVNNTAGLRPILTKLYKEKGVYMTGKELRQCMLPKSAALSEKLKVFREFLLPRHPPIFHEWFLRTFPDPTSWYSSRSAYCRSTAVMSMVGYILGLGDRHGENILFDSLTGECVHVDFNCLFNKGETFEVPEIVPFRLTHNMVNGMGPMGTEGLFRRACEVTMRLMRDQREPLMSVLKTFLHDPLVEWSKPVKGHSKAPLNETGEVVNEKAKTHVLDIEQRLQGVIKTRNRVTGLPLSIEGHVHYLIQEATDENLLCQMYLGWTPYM
# UniProt Q93084: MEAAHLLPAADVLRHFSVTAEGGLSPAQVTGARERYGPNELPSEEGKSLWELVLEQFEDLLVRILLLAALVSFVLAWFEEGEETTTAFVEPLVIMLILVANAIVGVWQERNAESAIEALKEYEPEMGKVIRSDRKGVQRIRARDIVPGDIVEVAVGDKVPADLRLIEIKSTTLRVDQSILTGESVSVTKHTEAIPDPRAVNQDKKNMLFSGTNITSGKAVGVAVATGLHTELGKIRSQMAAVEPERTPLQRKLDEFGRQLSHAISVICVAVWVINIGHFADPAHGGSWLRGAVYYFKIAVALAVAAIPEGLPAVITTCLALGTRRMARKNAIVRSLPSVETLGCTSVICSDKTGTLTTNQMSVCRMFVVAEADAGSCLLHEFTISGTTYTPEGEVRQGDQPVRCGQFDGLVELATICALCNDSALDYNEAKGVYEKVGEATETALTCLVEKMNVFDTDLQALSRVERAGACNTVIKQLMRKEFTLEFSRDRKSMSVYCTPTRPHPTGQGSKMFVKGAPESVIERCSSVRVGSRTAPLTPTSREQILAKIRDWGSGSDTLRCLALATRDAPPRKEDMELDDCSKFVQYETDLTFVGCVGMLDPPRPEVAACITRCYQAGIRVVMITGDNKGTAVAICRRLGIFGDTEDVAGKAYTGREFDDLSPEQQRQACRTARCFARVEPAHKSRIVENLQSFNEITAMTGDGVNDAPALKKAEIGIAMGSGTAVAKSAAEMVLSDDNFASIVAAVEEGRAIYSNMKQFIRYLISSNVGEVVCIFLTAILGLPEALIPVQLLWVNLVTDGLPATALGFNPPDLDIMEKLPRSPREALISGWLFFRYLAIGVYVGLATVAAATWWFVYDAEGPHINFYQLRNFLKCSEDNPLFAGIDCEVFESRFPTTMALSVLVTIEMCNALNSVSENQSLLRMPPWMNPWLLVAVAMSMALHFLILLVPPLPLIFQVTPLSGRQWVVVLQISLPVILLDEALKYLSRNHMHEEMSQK
# UniProt Q6DD88: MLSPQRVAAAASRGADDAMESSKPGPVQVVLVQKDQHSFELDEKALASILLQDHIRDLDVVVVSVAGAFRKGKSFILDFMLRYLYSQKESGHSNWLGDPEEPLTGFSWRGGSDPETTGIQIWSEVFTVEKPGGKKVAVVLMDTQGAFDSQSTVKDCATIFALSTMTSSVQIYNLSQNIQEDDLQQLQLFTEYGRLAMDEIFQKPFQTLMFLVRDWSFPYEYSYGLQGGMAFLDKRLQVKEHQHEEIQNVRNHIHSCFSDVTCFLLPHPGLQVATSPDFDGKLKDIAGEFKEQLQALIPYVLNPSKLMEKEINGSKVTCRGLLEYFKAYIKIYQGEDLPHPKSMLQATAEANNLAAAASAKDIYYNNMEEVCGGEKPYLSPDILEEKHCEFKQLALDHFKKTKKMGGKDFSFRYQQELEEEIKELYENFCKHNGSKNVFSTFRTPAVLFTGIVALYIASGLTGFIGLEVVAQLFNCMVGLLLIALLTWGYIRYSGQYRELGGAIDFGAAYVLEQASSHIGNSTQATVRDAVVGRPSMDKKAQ
# UniProt P17544: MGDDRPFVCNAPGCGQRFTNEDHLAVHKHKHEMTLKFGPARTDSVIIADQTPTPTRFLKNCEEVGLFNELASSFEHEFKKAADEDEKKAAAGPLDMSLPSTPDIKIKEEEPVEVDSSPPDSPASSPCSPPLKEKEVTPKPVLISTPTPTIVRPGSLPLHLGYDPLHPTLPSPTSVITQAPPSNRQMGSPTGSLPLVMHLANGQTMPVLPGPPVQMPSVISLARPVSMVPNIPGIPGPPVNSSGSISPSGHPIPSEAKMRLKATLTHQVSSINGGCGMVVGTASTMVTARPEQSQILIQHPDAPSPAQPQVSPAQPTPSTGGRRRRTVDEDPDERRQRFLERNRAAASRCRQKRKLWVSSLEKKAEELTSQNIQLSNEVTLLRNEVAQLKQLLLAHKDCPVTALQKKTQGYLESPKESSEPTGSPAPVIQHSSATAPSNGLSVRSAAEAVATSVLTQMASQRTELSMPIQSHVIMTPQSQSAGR
# UniProt O75947: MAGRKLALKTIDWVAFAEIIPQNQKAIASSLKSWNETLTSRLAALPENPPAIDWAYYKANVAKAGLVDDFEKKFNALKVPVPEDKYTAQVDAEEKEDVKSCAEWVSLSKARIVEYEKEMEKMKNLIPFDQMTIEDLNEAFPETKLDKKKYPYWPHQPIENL
# The list shows a part of the results.
# Experiments:
# Assay in all cases: log2 fold change, soluble protein after heating vs DMSO (PISA); higher = thermal stabilisation; K562 lysate, 10 uM; active = over 0.2 and 3.5 SD of the protein, either way, in both replicates (recomputed)
# [1] = compound: CS(=O)(=O)CCNCc1ccc(-c2ccc3ncnc(Nc4ccc(OCc5cccc(F)c5)c(Cl)c4)c3c2)o1 [lapatinib]
# Outline: (§1)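 The values are log-two fold changes in thermal stability compared with solvent controls and come from duplicates. They were obtained by TMTpro 16plex LC-MS/MS, with channel sums equalised, on the supernatant after 21,000xg for 90 min. That supernatant came from crude K562 extract at 1 mg/mL protein treated with 10 μM compound for 30 min, heated for 3 min across 48°C-58°C, pooled and brought to 0.5% NP-40 at 4°C.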
# [2] = compound: CS(=O)(=O)N1CCN(Cc2cc3nc(-c4cccc5[nH]ncc45)nc(N4CCOCC4)c3s2)CC1 [pictilisib]
# Outline: as §1
# [3] = compound: C[C@@H](Oc1cc(-c2cnn(C3CCNCC3)c2)cnc1N)c1c(Cl)ccc(F)c1Cl [crizotinib]
# Outline: as §1
# [4] = compound: C[C@H](C1=CC=C(C=C1)C(=O)NC2=C3C=CNC3=NC=C2)N
# Outline: as §1
# [5] = compound: C[C@H](Nc1ncnc2nc[nH]c12)c1cc2cccc(Cl)c2c(=O)n1-c1ccccc1 [duvelisib]
# Outline: as §1
# [6] = compound: Cc1cc(Nc2cc(CN3CCOCC3)c3nc(C)c(Cc4ccc(Cl)cc4F)n3n2)n[nH]1 [gandotinib]
# Outline: as §1
# [7] = compound: Cc1cc(Nc2cc(N3CCN(C)CC3)nc(Sc3ccc(NC(=O)C4CC4)cc3)n2)n[nH]1 [tozasertib]
# Outline: as §1
# [8] = compound: Cc1ccc(-n2nc(C(C)(C)C)cc2NC(=O)Nc2ccc(OCCN3CCOCC3)c3ccccc23)cc1 [doramapimod]
# Outline: as §1
# [9] = compound: Cc1ccc(NC(=O)c2ccc(CN3CC[C@H](N(C)C)C3)c(C(F)(F)F)c2)cc1Nc1nccc(-c2cncnc2)n1 [bafetinib]
# Outline: as §1
# [10] = compound: Cc1cccc(CC(=O)N2CCc3c2ccc(-c2cn(C)c4ncnc(N)c24)c3F)n1
# Outline: as §1
# [11] = compound: Cc1cn(-c2cc(NC(=O)c3ccc(C)c(Nc4nccc(-c5cccnc5)n4)c3)cc(C(F)(F)F)c2)cn1 [nilotinib]
# Outline: as §1
# [12] = compound: Cc1nc(Nc2n[nH]c3c2CN(C(=O)N[C@H](CN(C)C)c2ccccc2)C3(C)C)c2sccc2n1
# Outline: as §1
# [13] = compound: Cc1nc(Nc2ncc(C(=O)Nc3c(C)cccc3Cl)s2)cc(N2CCN(CCO)CC2)n1 [dasatinib]
# Outline: as §1
# [14] = compound: Cc1ncc(-c2ccnc(Nc3ccc(S(C)(=O)=O)cc3)n2)n1C(C)C
# Outline: as §1
# [15] = compound: Cn1cc(-c2ccc3c(c2)CCN3C(=O)Cc2cccc(C(F)(F)F)c2)c2c(N)ncnc21
# Outline: as §1
# [16] = compound: Cn1cc(CNCC2CCN(c3ncc(C(=O)NO)cn3)CC2)c2ccccc21 [quisinostat]
# Outline: as §1
# [17] = compound: Cn1cncc1[C@@](N)(c1ccc(Cl)cc1)c1ccc2c(c1)c(-c1cccc(Cl)c1)cc(=O)n2C [tipifarnib]
# Outline: as §1
# [18] = compound: NC(=O)Nc1cc(-c2cccc(F)c2)sc1C(=O)N[C@H]1CCCNC1
# Outline: as §1
# [19] = compound: NC(=O)c1cnc(N[C@@H]2CCCC[C@@H]2N)nc1Nc1cccc(-n2nccn2)c1
# Outline: as §1
# [20] = compound: NC1(c2ccc(-c3nc4ccn5c(=O)[nH]nc5c4cc3-c3ccccc3)cc2)CCC1
# Outline: as §1
Target,log2 fold change [1],log2 fold change [2],log2 fold change [3],log2 fold change [4],log2 fold change [5],log2 fold change [6],log2 fold change [7],log2 fold change [8],log2 fold change [9],log2 fold change [10],log2 fold change [11],log2 fold change [12],log2 fold change [13],log2 fold change [14],log2 fold change [15],log2 fold change [16],log2 fold change [17],log2 fold change [18],log2 fold change [19],log2 fold change [20]
ATP6V1F isoform 2 (UniProt Q16864),inactive: 0.08,inactive: 0.059,inactive: 0.023,inactive: 0.306,inactive: -0.034,inactive: -0.18,inactive: 0.083,inactive: 0.024,inactive: -0.126,inactive: -0.169,inactive: 0.016,inactive: 0.029,inactive: 0,inactive: 0.25,inactive: 0.054,inactive: -0.066,inactive: 0.023,inactive: -0.018,inactive: -0.061,inactive: 0.004
ASMTL (UniProt O95671),inactive: 0.009,inactive: -0.018,inactive: 0,inactive: -0.006,inactive: 0.005,inactive: -0.02,inactive: -0.017,inactive: -0.005,inactive: -0.069,inactive: 0.099,inactive: -0.066,inactive: -0.012,inactive: 0.025,inactive: -0.071,inactive: -0.02,inactive: 0.006,inactive: -0.079,inactive: 0.017,inactive: 0.011,inactive: -0.035
ATR (UniProt Q13535),inactive: -0.036,active: 0.408,inactive: -0.1,inactive: -0.158,inactive: 0.032,inactive: 0.117,inactive: 0.044,inactive: 0.068,inactive: -0.033,inactive: 0.161,inactive: -0.075,inactive: 0.002,inactive: 0.001,inactive: 0.013,inactive: 0.001,inactive: -0.219,inactive: -0.032,inactive: 0.047,inactive: 0.014,inactive: -0.085
ATG2B (UniProt Q96BY7),inactive: -0.009,inactive: -0.068,inactive: -0.06,inactive: -0.02,inactive: 0.014,inactive: -0.097,inactive: 0.003,inactive: 0.032,inactive: -0.049,inactive: 0.048,inactive: 0.01,inactive: 0.006,inactive: -0.066,inactive: -0.007,inactive: -0.027,inactive: -0.002,inactive: -0.09,inactive: 0.021,inactive: 0.015,inactive: -0.016
ATP2A3 isoform 2 (UniProt Q93084),inactive: 0.012,inactive: -0.02,inactive: -0.05,inactive: 0.079,inactive: 0.01,inactive: -0.144,inactive: 0.032,inactive: -0.011,inactive: -0.088,inactive: -0.008,inactive: -0.078,inactive: 0.042,inactive: -0.077,inactive: 0.047,inactive: 0.025,inactive: -0.058,inactive: 0.049,inactive: 0.031,inactive: -0.007,inactive: 0.024
ATL3 (UniProt Q6DD88),inactive: -0.005,inactive: -0.017,inactive: -0.069,inactive: 0.006,inactive: -0.022,inactive: -0.113,inactive: 0,inactive: -0.011,inactive: 0,inactive: 0.023,inactive: 0.01,inactive: 0.003,inactive: -0.066,inactive: 0.002,inactive: -0.023,inactive: 0.031,inactive: -0.037,inactive: 0.019,inactive: -0.014,inactive: -0.005
ATF7 isoform 6 (UniProt P17544),inactive: 0.04,inactive: 0.124,inactive: -0.14,inactive: 0.113,inactive: 0.051,inactive: -0.05,inactive: -0.049,inactive: 0.104,inactive: 0.187,inactive: -0.122,inactive: 0.083,inactive: 0.091,inactive: -0.045,inactive: 0.041,inactive: -0.034,inactive: -0.333,inactive: 0.154,inactive: -0.026,inactive: -0.056,inactive: -0.043
ATP5PD (UniProt O75947),inactive: -0.032,inactive: -0.058,inactive: 0.042,inactive: 0.009,inactive: -0.007,inactive: -0.005,inactive: 0.036,inactive: -0.027,inactive: 0.006,inactive: 0.003,inactive: 0.02,inactive: 0.013,inactive: 0.024,inactive: 0.016,inactive: -0.018,inactive: -0.017,inactive: 0.007,inactive: -0.037,inactive: 0,inactive: 0.023

# In another format: results already given
Target	log2 fold change [1]	log2 fold change [2]	log2 fold change [3]	log2 fold change [4]	log2 fold change [5]	log2 fold change [6]	log2 fold change [7]	log2 fold change [8]	log2 fold change [9]	log2 fold change [10]	log2 fold change [11]	log2 fold change [12]	log2 fold change [13]	log2 fold change [14]	log2 fold change [15]	log2 fold change [16]	log2 fold change [17]	log2 fold change [18]	log2 fold change [19]	log2 fold change [20]
ASMTL (UniProt O95671)	inactive: 0.009	inactive: -0.018	inactive: 0	inactive: -0.006	inactive: 0.005	inactive: -0.02	inactive: -0.017	inactive: -0.005	inactive: -0.069	inactive: 0.099	inactive: -0.066	inactive: -0.012	inactive: 0.025	inactive: -0.071	inactive: -0.02	inactive: 0.006	inactive: -0.079	inactive: 0.017	inactive: 0.011	inactive: -0.035
ATP2A3 isoform 2 (UniProt Q93084)	inactive: 0.012	inactive: -0.02	inactive: -0.05	inactive: 0.079	inactive: 0.01	inactive: -0.144	inactive: 0.032	inactive: -0.011	inactive: -0.088	inactive: -0.008	inactive: -0.078	inactive: 0.042	inactive: -0.077	inactive: 0.047	inactive: 0.025	inactive: -0.058	inactive: 0.049	inactive: 0.031	inactive: -0.007	inactive: 0.024
